Source: patent US9834525B2, “Inhibitors of paxillin function and related compositions and methods” (UNIVERSITY OF TENNESSEE RESEARCH FOUNDATION, priority 2015, dated 2017)
At least one structure is not confirmed: it was looked up by name or label, or the drawing left a doubt.

Key:
Format in all cases: cell-based, human
[1] = tested on: retinal endothelial cells (REC); experiment: VEGF-induced REC proliferation, WST-1 metabolic assay; settings: Compound (II-4) (500 nM), LY294002 (1004), SU6656 (104), U0126 (104) [sic]
Protocol: To investigate the potential of compound (II-4) affecting the proliferative capacity of RECs treated with VEGF, proliferation was measured using the metabolic assay based on the tetrazolium salt, WST-1. […] To rule out the possibility that this observation was related to cytotoxicity, RECs were incubated with a high concentration of compound (II-4) (1 μM) for 24 hours. Cells were harvested and apoptosis measured with Annexin-V/Propidium Iodide (PI) staining and analyzed using flow cytometry.
FIG. 18: REC Proliferation and Flow cytometry analysis of apoptosis in REC. A) VEGF-induced cellular proliferation was assessed using the WST-1 metabolic assay. […] (*P<0.0001). Nuclei were stained with DRAQ5 and imaged to show trend of decreasing proliferation. B) Apoptosis was measured using Annexin V/PI staining Compound (II-4) (1 μM) appears to be non-cytotoxic to retinal endothelial cells after 24 hour incubation (n≈10,000 cells).
FIG. 21: REC Proliferation. […] (*, # P<0.001; Mean±SD, N=8/group).

paxillin (pY118) = experiment: Western blot of VEGF-induced paxillin Y118 phosphorylation in REC; settings: REC under VEGF; compound (II-4) 500 nM, SU6656 1 μM
Protocol: (§1) REC, Mel 270, OMM 2.5 under Hepatocyte Growth Factor (HGF) or Vascular Endothelial Growth Factor (VEGF) stimulation conditions: Cell lysates were collected in RIPA lysis buffer (50 mM Tris-HCl, pH 7.4, 150 mM NaCl, 2 mM EDTA, 1% Nonidet P-40, 0.1% SDS) with protease 1× inhibitor cocktail (Roche; Indianapolis, Ind.). Lysates were kept on ice and centrifuged at 10,000×g×10 minutes and total protein was measured using the BCA assay (Pierce, Rockford, Ill.). Protein samples were mixed with 4×LDS loading buffer with 2.5% 2-mercaptoethanol (Sigma-Aldrich), heated to 70° C. for 10 minutes, and loaded on NuPAGE 4-12% Bis-Tris gel (Invitrogen, Carlsbad, Calif.). Immunoblotting was performed with nitrocellulose membranes (Bio-Rad, Hercules, Calif.) at 170-mA start and 110-mA end at 25 V for two hours in NuPAGE transfer buffer (Invitrogen) containing 20% methanol. Membranes were blocked using Odyssey blocking buffer (LI-COR; Lincoln, Nebr.) for one hour at room temperature with gentle shaking Membranes were then incubated at 4° C. with specific primary antibodies (1:1000) overnight. […] Dual-channel infrared scan and quantitation of immunoblots were conducted using the ODYSSEY Sa infrared imaging system with Image Studio (Ver. 3.1.4) (LI-COR). […]
FIG. 13: Targeting the alpha-4 subunit of VLA-4 signaling through inhibition of paxillin. […] Phosphorylation measured by Western Blot. […]

[2] = tested on: FAK (Y397, Y576/577, Y925); experiment: Western blot of VEGF-induced FAK phosphorylation in REC; settings: REC under VEGF; compound (II-4) 500 nM, SU6656 1 μM
Protocol: as §1, with “overnight. Cellular protein was normalized using rabbit-GAPDH or mouse-α-Tubulin [1:20,000] (Cell Signaling, Danvers, Mass.; LI-COR, respectively).” for “overnight.”

O=c1cc(N2CCOCC2)oc2c(-c3ccccc3)cccc12 [LY294002, reference compound]
VEGF-induced REC proliferation (FIG. 21) [1]: inhibited
VEGF-induced PaxY118 phosphorylation (FIG. 20) (paxillin (pY118)): did not affect
VEGF-induced FAK activation (Y397, Y925) [2]: did not affect
